Assay results published in article doi:10.1101/832287.
Results are given in words; binding and its absence hold for the method and conditions named. Binding seen in cells or lysates may run through a third protein. These calls come from enrichment with a bait or labelling near it, and not all partners need be listed.

The chains behind the UniProt entries cited, without tags or fusion partners. Residues count along the entry.
UniProt P03886: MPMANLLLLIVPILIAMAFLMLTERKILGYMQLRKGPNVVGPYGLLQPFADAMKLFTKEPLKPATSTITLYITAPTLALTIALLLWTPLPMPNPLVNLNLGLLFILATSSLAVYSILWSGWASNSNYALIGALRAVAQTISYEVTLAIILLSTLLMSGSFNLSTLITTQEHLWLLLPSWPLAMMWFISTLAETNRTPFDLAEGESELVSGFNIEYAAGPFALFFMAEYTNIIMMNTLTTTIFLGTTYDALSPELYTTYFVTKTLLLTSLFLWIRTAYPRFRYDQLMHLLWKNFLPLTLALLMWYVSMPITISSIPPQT
UniProt Q9Y6M9: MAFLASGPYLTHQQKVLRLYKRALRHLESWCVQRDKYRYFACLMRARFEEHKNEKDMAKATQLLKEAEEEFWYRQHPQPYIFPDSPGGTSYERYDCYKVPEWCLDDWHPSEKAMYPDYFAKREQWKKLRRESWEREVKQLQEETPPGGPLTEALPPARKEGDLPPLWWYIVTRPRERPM
UniProt Q9UI09: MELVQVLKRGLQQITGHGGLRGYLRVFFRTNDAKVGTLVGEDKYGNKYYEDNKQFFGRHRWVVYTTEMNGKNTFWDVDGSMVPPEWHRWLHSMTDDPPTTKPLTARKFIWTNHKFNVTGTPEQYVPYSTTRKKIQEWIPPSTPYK
UniProt P56556: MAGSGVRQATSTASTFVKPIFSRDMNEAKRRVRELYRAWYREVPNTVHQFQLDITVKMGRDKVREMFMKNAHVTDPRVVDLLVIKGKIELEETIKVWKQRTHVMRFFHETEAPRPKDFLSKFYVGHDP
UniProt O95178, residues 34-105: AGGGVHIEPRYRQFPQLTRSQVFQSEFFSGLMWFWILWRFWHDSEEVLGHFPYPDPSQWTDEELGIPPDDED
UniProt O95299, residues 36-355: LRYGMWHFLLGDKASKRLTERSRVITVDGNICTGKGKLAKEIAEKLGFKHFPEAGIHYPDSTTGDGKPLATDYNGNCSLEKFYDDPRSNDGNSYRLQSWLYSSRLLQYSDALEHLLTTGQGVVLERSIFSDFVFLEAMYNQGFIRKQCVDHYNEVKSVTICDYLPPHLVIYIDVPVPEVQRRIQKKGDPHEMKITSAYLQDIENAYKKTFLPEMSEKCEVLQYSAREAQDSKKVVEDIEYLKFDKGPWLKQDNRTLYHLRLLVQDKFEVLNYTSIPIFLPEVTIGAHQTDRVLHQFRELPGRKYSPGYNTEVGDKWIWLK
UniProt P47985: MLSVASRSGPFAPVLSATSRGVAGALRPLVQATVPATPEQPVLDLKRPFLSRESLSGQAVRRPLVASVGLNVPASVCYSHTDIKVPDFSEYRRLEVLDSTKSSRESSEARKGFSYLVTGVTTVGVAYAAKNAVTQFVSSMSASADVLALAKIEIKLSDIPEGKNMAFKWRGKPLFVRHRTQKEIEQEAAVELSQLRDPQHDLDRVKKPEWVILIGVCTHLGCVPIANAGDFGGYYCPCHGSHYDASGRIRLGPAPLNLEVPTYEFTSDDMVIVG
UniProt O75380, residues 29-124: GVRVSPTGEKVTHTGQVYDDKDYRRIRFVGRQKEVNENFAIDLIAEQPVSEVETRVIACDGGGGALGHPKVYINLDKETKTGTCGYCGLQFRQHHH
UniProt P17568: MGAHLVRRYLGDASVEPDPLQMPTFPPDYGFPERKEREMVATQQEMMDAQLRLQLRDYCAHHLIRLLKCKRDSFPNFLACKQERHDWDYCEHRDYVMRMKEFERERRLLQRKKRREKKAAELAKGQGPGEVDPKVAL
UniProt O95169, residues 29-186: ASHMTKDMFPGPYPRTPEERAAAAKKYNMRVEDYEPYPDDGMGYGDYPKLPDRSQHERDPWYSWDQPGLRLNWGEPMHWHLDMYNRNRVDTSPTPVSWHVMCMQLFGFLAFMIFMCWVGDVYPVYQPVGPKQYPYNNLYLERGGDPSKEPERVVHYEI
UniProt O43676: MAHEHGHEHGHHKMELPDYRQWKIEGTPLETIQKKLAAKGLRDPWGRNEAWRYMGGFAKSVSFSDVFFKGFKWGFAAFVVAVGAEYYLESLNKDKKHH
UniProt O95182: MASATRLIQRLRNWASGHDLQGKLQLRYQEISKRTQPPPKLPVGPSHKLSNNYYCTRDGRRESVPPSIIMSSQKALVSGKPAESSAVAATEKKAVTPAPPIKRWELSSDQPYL
UniProt O43181, residues 43-175: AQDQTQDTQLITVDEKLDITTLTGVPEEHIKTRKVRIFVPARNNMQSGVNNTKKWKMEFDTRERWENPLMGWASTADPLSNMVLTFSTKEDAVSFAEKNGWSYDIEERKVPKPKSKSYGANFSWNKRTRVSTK
UniProt Q9HD34: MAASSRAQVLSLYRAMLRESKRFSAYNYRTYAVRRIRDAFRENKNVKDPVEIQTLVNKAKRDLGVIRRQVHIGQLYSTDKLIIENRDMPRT

B1: LYRM2 (protein, UniProt Q9NU23 20-88)
chain: QQVLLLYRRILQTIRQVPNDSDRKYLKDWAREEFRRNKSATEEDTIRMMITQGNMQLKELEKTLALAKS
B2: LYRM1 (protein, UniProt O43325 1-122)
chain: MTTATRQEVLGLYRSIFRLARKWQATSGQMEDTIKEKQYILNEARTLFRKNKNLTDTDLIKQCIDECTARIEIGLHYKIPYPRPIHLPPMGLTPLRGRGLRSQEKLRKLSKPVYLRSHDEVS
B3: LYRM7 (protein, UniProt Q5U5X0 1-104)
chain: MGRAVKVLQLFKTLHRTRQQVFKNDARALEAARIKINEEFKNNKSETSSKKIEELMKIGSDVELLLRTSVIQGIHTDHNTLKLVPRKDLLVENVPYCDAPTQKQ

What follows are molecules tested against ND1 subunit of RCI (NADH dehydrogenase) (human (endogenous in HeLa)) (UniProt P03886) (assay: affinity purification with mass spectrometry).

binding, binds:
B1
B2
B3

Target: ND1 subunit of RCI (NADH dehydrogenase) (human (endogenous in HeLa)) (UniProt P03886)
Test: affinity purification with mass spectrometry
Remark: another data set of the same source

binding, binds:
NDUFB9 (from UniProt Q9Y6M9 1-179)
NDUFA12 (from UniProt Q9UI09 1-145)
NDUFA6 (from UniProt P56556 1-128)
NDUFB2 (from UniProt O95178 34-105)
NDUFA10 (from UniProt O95299 36-355)
UQCRFS1, the Rieske FeS protein from RCIII (from UniProt P47985 1-274)
NDUFS6 (from UniProt O75380 29-124)
NDUFB7 (from UniProt P17568 1-137)
NDUFB8 (from UniProt O95169 29-186)
NDUFB3 (from UniProt O43676 1-98)
NDUFA7 (from UniProt O95182 1-113)
NDUFS4 (from UniProt O43181 43-175)
LYRM4 (ISD11) (from UniProt Q9HD34 1-91)
